Laboratory results from patent publication US20230286982A1, “PROTEASOME ENHANCERS AND USES THEREOF” (Board of Trustees of Michigan State University, priority 2020, published 2023).
Some of these results come from one statement about several compounds together.

Protein sequences, listed by entry. Tags and fused reporters are not part of them. Lines headed by an entry give the natural chain unless they say otherwise; changes in a name come on top.
UniProt P25787: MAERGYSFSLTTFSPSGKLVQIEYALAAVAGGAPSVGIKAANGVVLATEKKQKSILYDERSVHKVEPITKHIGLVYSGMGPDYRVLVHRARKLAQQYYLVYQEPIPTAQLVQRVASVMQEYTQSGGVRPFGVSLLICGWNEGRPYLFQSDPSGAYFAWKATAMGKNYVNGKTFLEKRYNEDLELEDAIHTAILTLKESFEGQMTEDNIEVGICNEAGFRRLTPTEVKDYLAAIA
UniProt P25789: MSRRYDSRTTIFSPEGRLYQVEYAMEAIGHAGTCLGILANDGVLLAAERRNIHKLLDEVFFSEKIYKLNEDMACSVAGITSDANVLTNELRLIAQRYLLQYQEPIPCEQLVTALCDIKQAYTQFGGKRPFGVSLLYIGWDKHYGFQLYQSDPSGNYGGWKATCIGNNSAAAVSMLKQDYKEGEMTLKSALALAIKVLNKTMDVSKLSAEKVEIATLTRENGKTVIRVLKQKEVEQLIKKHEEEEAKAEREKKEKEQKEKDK

Biological target: T1, purified human 20S proteasome (Homo sapiens, UniProt P25787+P25789)
T1 construct: purchased Boston Biochem, Inc. (Cambridge, Mass.)
Assay: In vitro purified α-synuclein degradation assay (silver stain)
Type: biochemical
Conditions: at values near their AC200; p<0.001; 4 hours digestion

Structure (SMILES): O=C(CCC(c1ccc(F)cc1)c1ccc(F)cc1)N1CCC2(CC1)C(=O)NCN2c1ccccc1 [Compound 16]
- decrease in α-syn versus vehicle control: > 50%

Structure (SMILES): O=C1NCN(c2ccccc2)C12CCN(CCCC(c1ccc(F)cc1)c1ccc(F)cc1)CC2 [Fluspirilene, fluspirilene, reference compound]
- decrease in α-syn versus vehicle control: > 50%
